## Library screening results

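Viability assay of Plasmodium falciparum sporozoites; the read-out is not stated. The concentration is filed as 10 mM, unlikely as a test dose, so the dose is not known. Direction is inferred from retests: higher values go with lower viability. Strong results were mostly tested again. Of about 34,000 compounds tested this way, about 280 (0.84%) reached 50% or more in at least one test.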

Each number is a percent effect as filed.
The record does not define 0% and 100%; most values in the screen are far below 50% and negative numbers occur (in some assays of this library far below -100).
Compounds were drawn at random from those tested, without regard to their results.
Two or more numbers in one place are separate tests of the same structure; such repeats can differ widely.

compound: COc1c(CNCCNC(=O)c2cccc(C)c2)c(C)nn1C.Cl
Percent Effect: 17.89%

compound: Cc1n[nH]c(C)c1-c1cnc(CC2CCN(C(C)C)CC2)cn1
Percent Effect: 8.271%

compound: CCc1nccn1C1CCCN(C(=O)c2ccc3c(c2)OCO3)C1 (centres unmarked)
Percent Effect: -19.79%

compound: Cc1nc2cc(F)cc(C(=O)N3CCN(CCO)CC3)c2nc1C
Percent Effect: -7.135%

compound: CCc1csc(C2CCCN(C(=O)c3ccccn3)C2)n1 (centres unmarked)
Percent Effect: 0.5205%

compound: O=C(O)C(F)(F)F.O=C(O)C(F)(F)F.[H][C@@]12CN(CCOCC)C[C@H](C(=O)Nc3cccnc3)[C@]1([H])CCO2
Percent Effect: -4.174%

compound: CC(C)c1noc(CN2CCCC2c2noc(C(C)C)n2)n1 (centres unmarked)
Percent Effect: 2.212%

compound: [H][C@]12CC[C@]([H])(CN(Cc3ccccc3SC)C1)N(CC1CC1)C2=O
Percent Effect: -7.982%

compound: CCc1[nH]ncc1C(=O)N1CCCC(n2cncn2)C1 (centres unmarked)
Percent Effect: -4.375%

compound: CN(C)c1ccc(NC(=O)NCC2CCOC2)cn1 (centres unmarked)
Percent Effect: 18.89% & 57.86% & 27.86%

compound: Cn1cc(N2CCC3(CCCN(Cc4ccoc4)C3)C2=O)cn1 (centres unmarked)
Percent Effect: 0.3567%

compound: CC(C1CC1)N(C)C(=O)c1cnc(-c2ccc3c(c2)OCO3)s1 (centres unmarked)
Percent Effect: 53.72% & 75.58% & 50.81%

compound: CN(C)CCNC(=O)CC1CCN(c2cccnn2)CC1
Percent Effect: 1.834%

compound: CC(=O)N1CCCN(C(=O)NCc2cccnc2OC(C)C)CC1
Percent Effect: 16.74%

compound: Cc1cccc(OCCNC(=O)CN2CCc3cncnc3C2)c1
Percent Effect: -14.45%

compound: CNC(=O)CC1CC2(CCN(CC3CC3)CC2)Oc2ccccc21.O=C(O)C(F)(F)F (centres unmarked)
Percent Effect: -6.217%

compound: CCN(C)c1ncnc2c1CCN(Cc1ccncc1)CC2.O=C(O)C(F)(F)F.O=C(O)C(F)(F)F.O=C(O)C(F)(F)F
Percent Effect: -7.302%

compound: CCN(C)Cc1cnc(S(=O)(=O)CC)n1CCOC
Percent Effect: -0.104%

compound: CCOc1cc(C)nc(N2CCN(C(=O)C(C)NC(C)=O)CC2)n1 (centres unmarked)
Percent Effect: 6.818%

compound: Cn1ncc2c1CN(Cc1cccnc1)CC2COCC1CC1.O=C(O)C(F)(F)F.O=C(O)C(F)(F)F.O=C(O)C(F)(F)F (centres unmarked)
Percent Effect: -10.38%

compound: Cc1noc(C)c1CN(C)C(=O)c1ccc(NC2CC2)nc1
Percent Effect: -3.667%

compound: Oc1cc(CC2COCCN(CC3(O)CCOCC3)C2)ncn1 (centres unmarked)
Percent Effect: 12.93%

compound: CC[C@H]1N(Cc2ccco2)CCC[C@]12CCC(=O)N2C
Percent Effect: 1.625%

compound: CN(C(=O)c1cc(F)ccc1F)[C@@H]1CC[C@@H](O)[C@@H]1O
Percent Effect: 7.928%

compound: Cc1ccc(C2CSCCN2C(=O)c2ccsc2)o1 (centres unmarked)
Percent Effect: 2.768%

compound: CCc1nc(CC(=O)Nc2cnn(CC3CCCO3)c2)cs1 (centres unmarked)
Percent Effect: 0.5882%

compound: c1cc(N2CCCC2c2cnccn2)ncn1 (centres unmarked)
Percent Effect: 4.255%

compound: Cc1cn2nc(N3CCCC3Cn3nc(C)cc3C)sc2n1 (centres unmarked)
Percent Effect: -5.012%

compound: Cc1ccc(CNC(=O)CN2CCN(CC(O)C3CC3)CC2)cc1.Cl.Cl (centres unmarked)
Percent Effect: 0.3352%

compound: CNS(=O)(=O)CCNCC1(O)CCCN(CCC2CCCCC2)C1=O (centres unmarked)
Percent Effect: -11.32%

compound: COCCN1Cc2ccccc2C2(CCN(C(=O)c3ccco3)CC2)C1
Percent Effect: 18.72%

compound: O=C(CCc1cccc(Cl)c1Cl)N1CCOCC1c1ncon1 (centres unmarked)
Percent Effect: 6.242%

compound: Cc1nc2c(c(C)c1CC(=O)NCc1ccccc1F)c(=O)[nH]n2C
Percent Effect: 6.224%

compound: Cc1nc(CN2CCOC(CNc3cccnn3)C2)oc1C (centres unmarked)
Percent Effect: -8.8%

compound: O=C(NCCO)C1CN(c2cncnc2)CCO1 (centres unmarked)
Percent Effect: 8.396%

compound: Cn1cc(C(=O)NCC2CCN(C(=O)NC3CCCCC3)CC2)cn1
Percent Effect: 10.53%

compound: O=C(c1cc(C2CCCCN2C(=O)C2CCC2)n[nH]1)N1CCOCC1 (centres unmarked)
Percent Effect: -3.206%

compound: CCC(C)(C)NC(=O)C1CC(=O)N(CC2CC2)C1 (centres unmarked)
Percent Effect: -10.11%

compound: CCc1[nH]ncc1C(=O)N1CCOC(c2nc(C)n[nH]2)C1 (centres unmarked)
Percent Effect: -8.179% & 0.7086% & -4.576%

compound: Cc1nc(C2CCCN(C(=O)c3cccc4c3OCO4)C2)no1 (centres unmarked)
Percent Effect: -13.6%

compound: O=C(O)C(F)(F)F.O=C(O)C(F)(F)F.[H][C@@]12C[C@@H](C(=O)Nc3cccnc3)CN(Cc3ccsc3)[C@]1([H])CCO2
Percent Effect: -15.32%

compound: O=C1CC[C@@H](CN(Cc2ccncc2)Cc2nc(-c3cccs3)no2)N1
Percent Effect: -7.846%

compound: O=C(O)C(F)(F)F.O=C(O)C(F)(F)F.c1cncc(COCc2nnn3c2CN(Cc2ccsc2)CC3)c1
Percent Effect: -0.2632%

compound: Cc1noc(Cl)c1CCC(=O)N1CCC(CC(N)=O)CC1
Percent Effect: -0.8965%

compound: COCC1CN(C(=O)C2=CCCCC2)Cc2cnn(CC3CC3)c21 (centres unmarked)
Percent Effect: -15.53%

compound: CCc1nc(-c2noc3ccc(C(=O)N(C)CCOC)cc23)co1
Percent Effect: -12.79%

compound: CC1COCCN1Cc1nc(-c2ccc(F)cc2)no1 (centres unmarked)
Percent Effect: 1.786%

compound: CC(NC(=O)Nc1ccc(OC2CCCC2)cc1)c1nc[nH]n1 (centres unmarked)
Percent Effect: 68.07% & 85.04%

compound: CCCNC(=O)CN1CCN(Cc2csc(C(C)(C)C)n2)CC1
Percent Effect: 3.207%

compound: O=C(NCCn1ccnc1)N1CCCC1c1ccc2c(c1)OCCO2 (centres unmarked)
Percent Effect: 0.8792%

compound: COC(=O)c1ccc(N2CCN(CCC#N)C(C)C2)cc1 (centres unmarked)
Percent Effect: -14.75%

compound: CN(C)CC(=O)N1CC(c2nn(C)c3nccnc23)C1
Percent Effect: -7.066%

compound: O=C(C1SCCc2sccc21)N1CCN(CC(F)F)CC1 (centres unmarked)
Percent Effect: -10.87%

compound: Cc1cc(-c2cnc(N3CCCC3)nc2C(C)C)on1
Percent Effect: 6.416%

compound: O=C(c1cnns1)N1CCN(c2ccc(F)cc2Cl)CC1
Percent Effect: -20.25%

compound: CS(=O)(=O)NCCCNC(=O)c1cccnc1O
Percent Effect: 9.019%

compound: [H][C@@]12CN(C(=O)c3cccn3C)C[C@]1([H])C(=O)N(CCN1CCCC1)C2
Percent Effect: -6.388%

compound: Cn1cnc2c1C(COCC1CCOCC1)CN(C(=O)c1ccco1)C2.O=C(O)C(F)(F)F (centres unmarked)
Percent Effect: 12.96%

compound: COc1c(CNCc2ccc(CN(C)C)cc2)c(C)nn1C
Percent Effect: -20.53%

compound: CN(Cc1cccnc1)C1CC2(CCN(Cc3cccnc3)CC2)C1.O=C(O)C(F)(F)F.O=C(O)C(F)(F)F.O=C(O)C(F)(F)F
Percent Effect: 14.52%

Repeated from the top, 7 entries:

compound,Percent Effect
COc1c(CNCCNC(=O)c2cccc(C)c2)c(C)nn1C.Cl,17.89%
Cc1n[nH]c(C)c1-c1cnc(CC2CCN(C(C)C)CC2)cn1,8.271%
CCc1nccn1C1CCCN(C(=O)c2ccc3c(c2)OCO3)C1 (centres unmarked),-19.79%
Cc1nc2cc(F)cc(C(=O)N3CCN(CCO)CC3)c2nc1C,-7.135%
CCc1csc(C2CCCN(C(=O)c3ccccn3)C2)n1 (centres unmarked),0.5205%
O=C(O)C(F)(F)F.O=C(O)C(F)(F)F.[H][C@@]12CN(CCOCC)C[C@H](C(=O)Nc3cccnc3)[C@]1([H])CCO2,-4.174%
CC(C)c1noc(CN2CCCC2c2noc(C(C)C)n2)n1 (centres unmarked),2.212%

Measurements from “University of Dundee, Small-Polar-MMV Screening Library” (2021), ChEMBL document CHEMBL3988442.